Measurements reported in PubChem BioAssay AID493246 (Drosophila RNAi Screening Center, 2011).
The screen tested about 21,000 reagents; below is a random part of those with a known target gene and a result. In the full data, 429 (2%) were called active. 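Values are raw and not normalised between plates; calls rest on per-plate z-scores that were not deposited.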 Entries without a mark were called inactive. Names joined by + are all predicted targets of the reagent. The record does not give: the amount of reagent, the time to read-out.

- Assay: 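Genes fly cells need to grow and stay alive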 (primary screen)
- System: Drosophila Kc and S2R+ cells
- Reagents: long dsRNA against Drosophila genes
- Detection: 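Raw, unnormalised count of remaining cells in each well; per-plate z-scores of cell number underlie the calls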
- Reading the numbers: Kc cell number and S2R+ cell number: higher = more cells remaining
- Rule for the call: 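Counted as a hit if cell number falls by a z-score of at least 3 within its plate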

CG11598 [DRSC14331]
- Kc cell number, rep 1: 1.57e6
- Kc cell number, rep 2: 1.66e6
- S2R+ cell number, rep 1: 1.48e6
- S2R+ cell number, rep 2: 1.61e6

Tsp42Ec [DRSC06192]
- Kc cell number, rep 1: 1.59e6
- Kc cell number, rep 2: 1.70e6
- S2R+ cell number, rep 1: 1.39e6
- S2R+ cell number, rep 2: 1.52e6

CG9897 + asRNA:CR42742 [DRSC04595]
- Kc cell number, rep 1: 1.75e6
- Kc cell number, rep 2: 1.81e6
- S2R+ cell number, rep 1: 1.25e6
- S2R+ cell number, rep 2: 1.38e6

CG3420 [DRSC04995]
- Kc cell number, rep 1: 1.60e6
- Kc cell number, rep 2: 1.62e6
- S2R+ cell number, rep 1: 1.37e6
- S2R+ cell number, rep 2: 1.59e6

CG1441 [DRSC06448]
- Kc cell number, rep 1: 1.34e6
- Kc cell number, rep 2: 1.41e6
- S2R+ cell number, rep 1: 1.11e6
- S2R+ cell number, rep 2: 1.17e6

NT1 [DRSC08530]
- Kc cell number, rep 1: 1.54e6
- Kc cell number, rep 2: 1.44e6
- S2R+ cell number, rep 1: 1.17e6
- S2R+ cell number, rep 2: 1.23e6

Atg8b [DRSC14501]
- Kc cell number, rep 1: 1.45e6
- Kc cell number, rep 2: 1.48e6
- S2R+ cell number, rep 1: 9.59e5
- S2R+ cell number, rep 2: 1.17e6

msk [DRSC11340]
- Kc cell number, rep 1: 1.45e6
- Kc cell number, rep 2: 1.50e6
- S2R+ cell number, rep 1: 1.26e6
- S2R+ cell number, rep 2: 1.27e6

Cyp6a2 [DRSC05014]
- Kc cell number, rep 1: 1.67e6
- Kc cell number, rep 2: 1.58e6
- S2R+ cell number, rep 1: 1.47e6
- S2R+ cell number, rep 2: 1.54e6

Rtel1 [DRSC18343]
- Kc cell number, rep 1: 1.41e6
- Kc cell number, rep 2: 1.40e6
- S2R+ cell number, rep 1: 9.95e5
- S2R+ cell number, rep 2: 1.12e6

Mulk [DRSC02658]
- Kc cell number, rep 1: 1.24e6
- Kc cell number, rep 2: 1.29e6
- S2R+ cell number, rep 1: 1.29e6
- S2R+ cell number, rep 2: 1.28e6

CG13559 [DRSC04197]
- Kc cell number, rep 1: 1.49e6
- Kc cell number, rep 2: 1.58e6
- S2R+ cell number, rep 1: 1.23e6
- S2R+ cell number, rep 2: 1.30e6

2 entries from above, reduced to “Kc cell number, rep 2”.
Rtel1 [DRSC18343]: 1.40e6
Mulk [DRSC02658]: 1.29e6

Further reagents:
CG4763 [DRSC04009]
- Kc cell number, rep 1: 1.51e6
- Kc cell number, rep 2: 1.70e6
- S2R+ cell number, rep 1: 8.95e5
- S2R+ cell number, rep 2: 1.05e6

CG4763 [DRSC04487]
- Kc cell number, rep 1: 1.79e6
- Kc cell number, rep 2: 1.92e6
- S2R+ cell number, rep 1: 1.29e6
- S2R+ cell number, rep 2: 1.31e6

MED16 [DRSC04506]
- Kc cell number, rep 1: 1.64e6
- Kc cell number, rep 2: 1.88e6
- S2R+ cell number, rep 1: 1.26e6
- S2R+ cell number, rep 2: 2.72e5

Pif1A + Pif1B [DRSC14142]
- Kc cell number, rep 1: 1.64e6
- Kc cell number, rep 2: 1.87e6
- S2R+ cell number, rep 1: 1.27e6
- S2R+ cell number, rep 2: 1.34e6

Pif1A + Pif1B [DRSC14380]
- Kc cell number, rep 1: 1.52e6
- Kc cell number, rep 2: 1.64e6
- S2R+ cell number, rep 1: 1.22e6
- S2R+ cell number, rep 2: 1.26e6

Pif1A + Pif1B [DRSC14381]
- Kc cell number, rep 1: 1.44e6
- Kc cell number, rep 2: 1.60e6
- S2R+ cell number, rep 1: 1.27e6
- S2R+ cell number, rep 2: 1.38e6

Prps [DRSC08994]
- Kc cell number, rep 1: 1.18e6
- Kc cell number, rep 2: 1.27e6
- S2R+ cell number, rep 1: 8.92e5
- S2R+ cell number, rep 2: 1.04e6

Prps [DRSC10707]
- Kc cell number, rep 1: 1.24e6
- Kc cell number, rep 2: 1.26e6
- S2R+ cell number, rep 1: 8.83e5
- S2R+ cell number, rep 2: 9.94e5

Prps [DRSC10708]
- Kc cell number, rep 1: 1.24e6
- Kc cell number, rep 2: 1.23e6
- S2R+ cell number, rep 1: 9.55e5
- S2R+ cell number, rep 2: 1.04e6
